# Measured values from PMC10893103, “Cyclodextrin-Enabled Enantioselective Complexation Study of Cathinone Analogs” (Molecules, 2024).
# How the values were obtained:
# [1] = Chiral CE enantioseparation screening, pH 4.5
# [2] = Chiral CE enantioseparation screening, pH 4.5; remark: listed apart in the source
# [3] = Chiral CE enantioseparation screening, pH 4.5; remark: listed apart in the source
# [4] = Chiral CE enantioseparation screening, pH 4.5; remark: listed apart in the source
# [5] = Affinity capillary electrophoresis (ACE), pH 7.4; conditions: 30 mM phosphate buffer pH 7.4; at the optimal CD concentration printed in brackets beside the value
# Excerpt: To assess the CD complex formation capability of the five cathinone derivatives, we devised a screening ACE method tailored to closely mimic physiological conditions. In a preliminary study, the ACE conditions were optimized regarding the type, pH, and concentration of the background electrolyte, the applied voltage, and the injection parameters. […] In order to avoid high Joule heat generation, sufficiently low voltage should be used; thus, after registering the Ohm plot (I-U plot), it was set to 15 kV. Throughout our ACE measurements, corrections for viscosity and ionic strength were systematically implemented to ensure precise determination of complex stability constants.
# The CE experiments were performed on a HP ^3DCE and on an Agilent 7100 instrument (Agilent Technologies, Waldbronn, Germany) equipped with a photodiode array detector and the Chemstation software for data handling. Untreated fused silica capillaries (50 µm id, 48.5 cm total, 40 cm effective length) were purchased from Agilent. Conditioning of new capillary was conducted by flushing with 1 M NaOH followed by 0.1 M NaOH and water for 30 min each. Prior to all runs, the capillary was preconditioned by rinsing with BGE (2 min). The temperature of the capillary was set to 25 °C. UV detection was performed at 215 nm, and 15–25 kV voltage was applied. Samples were injected hydrodynamically (150 mbar·sec, optimized in the 50–500 mbar·sec range). The CE-pH measurements were carried out applying 25 kV voltage and 200 mbar·sec injection.
# The background electrolyte of the CE-pH measurements contained 25 mM Na2HPO4 and 25 mM Na2B4O7, and the appropriate pH was adjusted with hydrochloric acid. During the ACE measurements, 30 mM phosphate buffer pH 7.4 (30 mM Na2HPO4—NaOH) was used. The running buffer was 20 mM acetic acid adjusting with 1 M Tris the pH to 4.5 during the chiral screening experiments. The BGEs contained CDs at various concentrations (0.25–20 mM) in the ACE experiments and 1-5-10 mM in the chiral method optimization experiments.
# Stock solutions of each cathinone analog (mephedrone, flephedrone, 4-MEC, butylone, and MDPV) were prepared separately in methanol (1 mg/ml), and appropriate dilutions with water were used to prepare sample solutions for the CE-pH titration and for the ACE studies applying DMSO as EOF marker, while their mixture was used during the chiral separation studies.
# The simplest way to determine the mobility is from the migration times (tmax) read from the electropherograms from which the apparent mobility could be calculated, but more accurate mobility values could be obtained by the determination with the Haarhoff–van der Linde (HVL) function based on Equation (2). (2) HVLδ(t;a0,a1,a2,a3δ)=a0/a2a3δ2πexp[−1/2(t−a1/a2)^2]/1/exp(a3δ)−1+1/2[1+erf(t−a1/2a2)] where a0 is the area of the HVL function, a1 is the position of the Gaussian component, a2 is the standard deviation of the Gaussian component, and a3δ is the peak shape distortion. The application of the HVL function is necessary in the case of accurate ACE measurements because, in several cases, the peaks are distorted due to the complex formation, which makes reading the migration times and calculating the mobility more difficult and imprecise.
# The most popular technique for quantifying the analyte–ligand interaction with CE is mobility shift ACE.
# [6] = Chiral CE enantioseparation screening, pH 4.5; remark: listed apart in the source
# [7] = 20 mM acetate buffer pH 4.5, CD 1 mM
# [8] = 20 mM acetate buffer pH 4.5, CD 5 mM
# [9] = 20 mM acetate buffer pH 4.5, CD 10 mM
# [10] = 20 mM acetate buffer pH 4.5, CD 1-5-10 mM
# [11] = 20 mM acetate buffer pH 4.5, CD 1-5 mM
Compound,"Enantioseparation (Rs) of MDPV [1, 7]","Enantioseparation (Rs) of MDPV [1, 8]","Enantioseparation (Rs) of MDPV [1, 9]","Enantioseparation (Rs) of Flephedrone [2, 7]","Enantioseparation (Rs) of Flephedrone [2, 8]","Enantioseparation (Rs) of Flephedrone [2, 9]","Enantioseparation (Rs) of 4-MEC [3, 7]","Enantioseparation (Rs) of 4-MEC [3, 8]","Enantioseparation (Rs) of 4-MEC [3, 9]","Enantioseparation (Rs) of Mephedrone [4, 7]","Enantioseparation (Rs) of Mephedrone [4, 8]","Enantioseparation (Rs) of Mephedrone [4, 9]",Butylone maximal enantioresolution Rs [5],Mephedrone maximal enantioresolution Rs [5],"Enantioseparation (Rs) of Butylone [6, 7]","Enantioseparation (Rs) of Butylone [6, 8]","Enantioseparation (Rs) of Butylone [6, 9]",4-MEC maximal enantioresolution Rs [5],Flephedrone maximal enantioresolution Rs [5],MDPV maximal enantioresolution Rs [5],also measured
sulfobutyl-ether-γ-CD [SBE-γ-CD],0,0.6,0,0,0,0,0,1.1,1.1,0,1.1,0.9,0.6,0.5,0,0.5,0.8,,,,
randomly methylated-β-CD [RAME-β-CD],,,,,,,,,,,,,0.3,,,,,,,,"Enantioseparation (Rs) of MDPV [1, 10]: 0; Enantioseparation (Rs) of Flephedrone [2, 10]: 0; Enantioseparation (Rs) of 4-MEC [3, 10]: 0; Enantioseparation (Rs) of Mephedrone [4, 10]: 0; Enantioseparation (Rs) of Butylone [6, 10]: 0"
dimethylated-β-CD [DIME-β-CD],0,0,0,0,0.8,0.5,0,0,0,0,0,0,,,0,0,0,0.6,,,
carboxymethylated-γ-CD [CM-γ-CD],0.9,1.9,0.5,0,0.9,0.9,0.7,2.1,1.7,1.1,2.6,2.2,1.8,2.6,1.2,1.6,1.9,1.7,0.7,1.4,
OC[C@H]1O[C@@H]2O[C@H]3[C@H](O)[C@@H](O)[C@@H](O[C@H]4[C@H](O)[C@@H](O)[C@@H](O[C@H]5[C@H](O)[C@@H](O)[C@@H](O[C@H]6[C@H](O)[C@@H](O)[C@@H](O[C@H]7[C@H](O)[C@@H](O)[C@@H](O[C@H]1[C@H](O)[C@H]2O)O[C@@H]7CO)O[C@@H]6CO)O[C@@H]5CO)O[C@@H]4CO)O[C@@H]3CO [α-CD],,,0,,,0,,,0.3,,,0,,,,,0,,,0.6,"Enantioseparation (Rs) of MDPV [1, 11]: 0; Enantioseparation (Rs) of Flephedrone [2, 11]: 0; Enantioseparation (Rs) of 4-MEC [3, 11]: 0; Enantioseparation (Rs) of Mephedrone [4, 11]: 0; Enantioseparation (Rs) of Butylone [6, 11]: 0"
"CO[C@@H]1[C@@H](OC)[C@H]2O[C@H]3[C@H](OC)[C@@H](OC)[C@@H](O[C@H]4[C@H](OC)[C@@H](OC)[C@@H](O[C@H]5[C@H](OC)[C@@H](OC)[C@@H](O[C@H]6[C@H](OC)[C@@H](OC)[C@@H](O[C@H]7[C@H](OC)[C@@H](OC)[C@@H](O[C@H]8[C@H](OC)[C@@H](OC)[C@@H](O[C@H]9[C@H](OC)[C@@H](OC)[C@@H](O[C@@H]1[C@@H](COS(=O)(=O)O)O2)O[C@@H]9COS(=O)(=O)O)O[C@@H]8COS(=O)(=O)O)O[C@@H]7COS(=O)(=O)O)O[C@@H]6COS(=O)(=O)O)O[C@@H]5COS(=O)(=O)O)O[C@@H]4COS(=O)(=O)O)O[C@@H]3COS(=O)(=O)O [ODMS-γ-CD, octakis-(2,3-O-dimethyl, 6-O-sulfo)-γ-CD]",0,1.5,2.7,0.8,2.2,3.3,1.5,4.0,5.8,2.2,5.4,7.5,1.6,2.5,1.1,2.9,4.4,1.7,1.1,0.9,
"O=C(O)CCSC[C@H]1O[C@@H]2O[C@H]3[C@H](O)[C@@H](O)[C@@H](O[C@H]4[C@H](O)[C@@H](O)[C@@H](O[C@H]5[C@H](O)[C@@H](O)[C@@H](O[C@H]6[C@H](O)[C@@H](O)[C@@H](O[C@H]7[C@H](O)[C@@H](O)[C@@H](O[C@H]8[C@H](O)[C@@H](O)[C@@H](O[C@H]1[C@H](O)[C@H]2O)O[C@@H]8CSCCC(=O)O)O[C@@H]7CSCCC(=O)O)O[C@@H]6CSCCC(=O)O)O[C@@H]5CSCCC(=O)O)O[C@@H]4CSCCC(=O)O)O[C@@H]3CSCCC(=O)O [SBX, heptakis-(6-deoxy-6-(2-carboxyethyl)thio)-β-CD]",0,2.7,1.9,0,0.5,0.6,0.5,,0.8,0.4,0,0,0.9,,0,0.7,0.9,,1.0,1.6,
sulfobutyl-ether-β-CD [SBE-β-CD (DS~6.5)],0.7,1.0,1.4,0.3,0.5,0.4,0.5,1.2,1.5,0.4,0.7,0.8,0.7,0.6,0.5,0.4,0.6,1.4,1.0,1.1,
sulfopropylated-β-CD [SP-β-CD (DS~4)],0.3,0.4,0.6,0,0,0,0,0.3,0.4,0,0.4,0.5,,0.5,0.5,0.3,0,,,,
